The values that follow come from article PMC12270237.

The chains behind the UniProt entries cited, without tags or fusion partners. Residues count along the entry.
UniProt Q8K2B3, residues 43-664: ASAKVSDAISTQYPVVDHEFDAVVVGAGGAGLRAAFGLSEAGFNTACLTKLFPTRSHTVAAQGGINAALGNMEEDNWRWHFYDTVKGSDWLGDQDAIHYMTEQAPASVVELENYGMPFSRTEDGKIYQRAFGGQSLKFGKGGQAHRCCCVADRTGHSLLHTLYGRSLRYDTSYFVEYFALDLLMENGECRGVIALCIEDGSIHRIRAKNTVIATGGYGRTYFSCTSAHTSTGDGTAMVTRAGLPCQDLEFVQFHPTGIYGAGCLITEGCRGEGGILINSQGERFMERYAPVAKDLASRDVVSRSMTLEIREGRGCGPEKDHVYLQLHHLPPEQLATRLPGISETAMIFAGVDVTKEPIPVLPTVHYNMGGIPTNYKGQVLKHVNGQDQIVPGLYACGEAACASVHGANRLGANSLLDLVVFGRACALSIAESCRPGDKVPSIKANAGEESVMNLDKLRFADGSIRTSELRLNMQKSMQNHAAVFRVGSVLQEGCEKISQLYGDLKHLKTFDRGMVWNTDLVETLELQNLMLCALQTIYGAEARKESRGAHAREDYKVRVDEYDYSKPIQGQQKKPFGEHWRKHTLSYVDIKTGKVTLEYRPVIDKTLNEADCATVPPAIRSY

Results are given in words; binding and its absence hold for the method and conditions named. For part of these data: In cells and extracts the contact can be indirect. Some binding calls cover weakened binding; strength is not graded here. For part of these data: Sequences can lack the tags named with a protein.

The target of assay [1] is SDHA (endogenous, mouse) (mouse (endogenous in N2a)) (UniProt Q8K2B3). The experiment in a line: native gel or EMSA; 2D gel: BN-PAGE (2% digitonin) then SDS-PAGE, western blot; mitochondria isolated from N2a cells. For orientation: A gel shift assay detects complexes by their altered migration in electrophoresis.
Assay [2] has as its target T1, MICU1-HA (knock-in mouse, endogenous locus) (mouse) (UniProt Q8VCX5).
T1 sequence: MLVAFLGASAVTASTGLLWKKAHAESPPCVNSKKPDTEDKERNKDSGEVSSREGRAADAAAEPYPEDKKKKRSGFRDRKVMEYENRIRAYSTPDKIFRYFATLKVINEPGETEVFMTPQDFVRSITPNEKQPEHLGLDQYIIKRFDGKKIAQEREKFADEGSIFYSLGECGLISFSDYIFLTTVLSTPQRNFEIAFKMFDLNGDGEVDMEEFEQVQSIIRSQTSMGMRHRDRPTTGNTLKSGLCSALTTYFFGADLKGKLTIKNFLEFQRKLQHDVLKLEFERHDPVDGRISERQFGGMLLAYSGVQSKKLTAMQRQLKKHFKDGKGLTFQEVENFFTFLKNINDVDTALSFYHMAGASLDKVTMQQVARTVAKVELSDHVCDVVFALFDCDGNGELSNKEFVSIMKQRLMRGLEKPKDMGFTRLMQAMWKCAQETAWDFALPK
The assay is described as follows: co-IP; IP of MICU1-HA from hepatic mitochondria isolated from Micu1^HA/HA and control mice; western blot. For orientation: Immunoblotting shows a protein as a band on a membrane.

For the next assay, the target named is T2, MICU2^EFmut-Myc (UniProt Q8IYU8).
T2 sequence: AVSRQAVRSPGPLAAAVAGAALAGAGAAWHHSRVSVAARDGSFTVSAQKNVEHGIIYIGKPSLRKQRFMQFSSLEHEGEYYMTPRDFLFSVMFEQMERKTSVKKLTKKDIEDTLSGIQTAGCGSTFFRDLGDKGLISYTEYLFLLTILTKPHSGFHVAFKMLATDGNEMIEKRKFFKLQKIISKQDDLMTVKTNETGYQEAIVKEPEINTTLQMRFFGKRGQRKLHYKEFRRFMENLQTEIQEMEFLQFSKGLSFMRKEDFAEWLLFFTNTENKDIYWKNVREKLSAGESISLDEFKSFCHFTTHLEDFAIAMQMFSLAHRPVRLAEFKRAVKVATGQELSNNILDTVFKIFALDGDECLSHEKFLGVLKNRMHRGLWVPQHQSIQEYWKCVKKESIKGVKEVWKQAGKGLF
The experiment in a line: co-IP; transfected HEK 293T cells (Micu1-/-, Mcu-/- or WT; some treated with ionomycin or BAPTA-AM 12 h before collection); cells treated with 0.2 mM DSP, lysed in Pierce IP lysis buffer; anti-HA, -Myc or -FLAG beads overnight at 4°C; western blot.

The target in another assay is T3, MICU2-Myc (UniProt Q8IYU8).
T3 sequence: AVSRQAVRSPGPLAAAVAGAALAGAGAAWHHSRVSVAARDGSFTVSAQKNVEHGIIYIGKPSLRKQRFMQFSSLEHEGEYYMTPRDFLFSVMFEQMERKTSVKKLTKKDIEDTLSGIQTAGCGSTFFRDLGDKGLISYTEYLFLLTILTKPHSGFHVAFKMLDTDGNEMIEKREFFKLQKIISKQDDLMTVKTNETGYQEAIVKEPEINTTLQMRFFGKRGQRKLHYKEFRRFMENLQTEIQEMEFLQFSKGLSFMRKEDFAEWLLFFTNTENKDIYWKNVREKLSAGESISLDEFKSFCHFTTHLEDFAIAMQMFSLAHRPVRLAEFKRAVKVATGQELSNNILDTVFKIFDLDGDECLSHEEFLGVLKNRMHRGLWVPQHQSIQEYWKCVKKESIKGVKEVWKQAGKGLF
Described as above.

B1: GPD2 (endogenous, mouse) (protein, UniProt Q64521 43-727)
chain: AGYLTEPVNREPPSREAQLMTLKNTPEFDILVIGGGATGCGCALDAVTRGLKTALVERDDFSSGTSSRSTKLIHGGVRYLQKAIMNLDVEQYRMVKEALHERANLLEIAPHLSAPLPIMLPLYKWWQLPYYWVGIKMYDLVAGSQCLKSSYVLSKSRALEHFPMLQKDKLVGAIVYYDGQHNDARMNLAIALTAARYGAATANYMEVVSLLKKTDPETGKERVSGARCKDVLTGQEFDVRAKCVINASGPFTDSVRKMDDKNVVPICQPSAGVHIVMPGYYSPENMGLLDPATSDGRVIFFLPWEKMTIAGTTDTPTDVTHHPIPSEEDINFILNEVRNYLSSDVEVRRGDVLAAWSGIRPLVTDPKSADTQSISRNHVVDISDSGLITIAGGKWTTYRSMAEDTVDAAVKFHNLNAGPSRTVGLFLQGGKDWSPTLYIRLVQDYGLESEVAQHLAKTYGDKAFEVAKMASVTGKRWPVVGVRLVSEFPYIEAEVKYGIKEYACTAVDMISRRTRLAFLNVQAAEEALPRIVELMGRELNWSELRKQEELETATRFLYYEMGYKSRTEQLTDSTEISLLPSDIDRYKKRFHKFDEDEKGFITIVDVQRVLESINVQMDENTLHEILCEVDLNKNGQVELHEFLQLMSAVQKGRVSGSRLAILMKTAEENLDRRVPIPVDRSCGGL
With B1, the binding entry in assay [1] and in assay [2] was “binds” in each case.

B2: MICU2 (endogenous, mouse) (protein, UniProt Q8CD10 23-432)
chain: AAGRRAVPTRGPLAAAVAGVALAGAGAAWHHGRVKAAAREGSRTVSAQKNYLGPIEKLSLRKQRFMQFSSLEHDGEYYMTPRDFLFSVMFEQVERKTLVKKLAKKDIEDVLSGIQTARCGSTFFRDLGDKGVISYTEYLFLLTILTKPHSGFHVAFKMLDVDGNEMIERKEFVKLQKIISKQDGFKTVKTNETEYQDPTVKEPGVNTTLQVRFFGKRGEKKLHYKEFRRFMENLQTEVQEMEFLQFSKGLNFMRKEDFAEWLLFFTNTENKDIYWRNVREKLSVGESISLDEFKSFCHFTTHLEDFAIAMQMFSLAHRPVRLAEFKRAVKVATGQELSDNLLDTVFKIFDLDGDECLSHGEFLGVLKNRMHRGLWVSQQQSVQEYWKCVKKESIKGVKEAWRQQAGKGPF
For the molecule B2, the binding entry in assay [2] is reported as “binds”.

B3: Glycerol-3-phosphate dehydrogenase (GPD2) (protein, UniProt P43304 43-727)
chain: ADCISEPVNREPPSREAQLLTLQNTSEFDILVIGGGATGSGCALDAVTRGLKTALVERDDFSSGTSSRSTKLIHGGVRYLQKAIMKLDIEQYRMVKEALHERANLLEIAPHLSAPLPIMLPVYKWWQLPYYWVGIKLYDLVAGSNCLKSSYVLSKSRALEHFPMLQKDKLVGAIVYYDGQHNDARMNLAIALTAARYGAATANYMEVVSLLKKTDPQTGKVRVSGARCKDVLTGQEFDVRAKCVINATGPFTDSVRKMDDKDAAAICQPSAGVHIVMPGYYSPESMGLLDPATSDGRVIFFLPWQKMTIAGTTDTPTDVTHHPIPSEEDINFILNEVRNYLSCDVEVRRGDVLAAWSGIRPLVTDPKSADTQSISRNHVVDISESGLITIAGGKWTTYRSMAEDTINAAVKTHNLKAGPSRTVGLFLQGGKDWSPTLYIRLVQDYGLESEVAQHLAATYGDKAFEVAKMASVTGKRWPIVGVRLVSEFPYIEAEVKYGIKEYACTAVDMISRRTRLAFLNVQAAEEALPRIVELMGRELNWDDYKKQEQLETARKFLYYEMGYKSRSEQLTDRSEISLLPSDIDRYKKRFHKFDADQKGFITIVDVQRVLESINVQMDENTLHEILNEVDLNKNGQVELNEFLQLMSAIQKGRVSGSRLAILMKTAEENLDRRVPIPVDRSCGGL
Consider B3, for which the binding entry with MICU2^EFmut-Myc and with MICU2-Myc was “binds” in each case.

B4: SDHC (endogenous, mouse) (protein, UniProt Q9CZB0 30-169)
chain: LGTTAKEEMERFWKKNTSSNRPLSPHLTIYKWSLPMALSVCHRGSGIALSGGVSLFGLSALLLPGNFESYLMFVKSLCLGPTLIYSAKFVLVFPLMYHSLNGIRHLLWDLGKGLAIPQVWLSGVAVVVLAVLSSGGLAAL
For the molecule B4, the binding entry in assay [2] is “binds”.
